From the supplement of paper PMC11006884
This list holds what a sample rich in targets with a hit left over. The data scatter; read single values as rough. This is a selection; strong and weak results do not stand in their true shares.

By UniProt entry, the sequences of proteins in these tests, tags left out. Where a name states a change or a piece, a line headed by the entry shows the natural chain unless it says otherwise.
UniProt Q96EB1: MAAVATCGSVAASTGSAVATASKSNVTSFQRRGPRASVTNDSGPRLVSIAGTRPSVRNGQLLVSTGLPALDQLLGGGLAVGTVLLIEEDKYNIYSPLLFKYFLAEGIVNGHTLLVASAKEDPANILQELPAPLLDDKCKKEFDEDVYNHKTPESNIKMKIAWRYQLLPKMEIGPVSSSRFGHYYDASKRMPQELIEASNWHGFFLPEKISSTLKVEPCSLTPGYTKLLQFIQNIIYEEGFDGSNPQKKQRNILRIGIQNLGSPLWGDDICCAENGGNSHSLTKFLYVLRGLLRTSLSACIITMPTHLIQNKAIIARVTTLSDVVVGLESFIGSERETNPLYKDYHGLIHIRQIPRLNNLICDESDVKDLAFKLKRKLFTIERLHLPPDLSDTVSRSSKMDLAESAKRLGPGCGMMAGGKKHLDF
UniProt Q92667: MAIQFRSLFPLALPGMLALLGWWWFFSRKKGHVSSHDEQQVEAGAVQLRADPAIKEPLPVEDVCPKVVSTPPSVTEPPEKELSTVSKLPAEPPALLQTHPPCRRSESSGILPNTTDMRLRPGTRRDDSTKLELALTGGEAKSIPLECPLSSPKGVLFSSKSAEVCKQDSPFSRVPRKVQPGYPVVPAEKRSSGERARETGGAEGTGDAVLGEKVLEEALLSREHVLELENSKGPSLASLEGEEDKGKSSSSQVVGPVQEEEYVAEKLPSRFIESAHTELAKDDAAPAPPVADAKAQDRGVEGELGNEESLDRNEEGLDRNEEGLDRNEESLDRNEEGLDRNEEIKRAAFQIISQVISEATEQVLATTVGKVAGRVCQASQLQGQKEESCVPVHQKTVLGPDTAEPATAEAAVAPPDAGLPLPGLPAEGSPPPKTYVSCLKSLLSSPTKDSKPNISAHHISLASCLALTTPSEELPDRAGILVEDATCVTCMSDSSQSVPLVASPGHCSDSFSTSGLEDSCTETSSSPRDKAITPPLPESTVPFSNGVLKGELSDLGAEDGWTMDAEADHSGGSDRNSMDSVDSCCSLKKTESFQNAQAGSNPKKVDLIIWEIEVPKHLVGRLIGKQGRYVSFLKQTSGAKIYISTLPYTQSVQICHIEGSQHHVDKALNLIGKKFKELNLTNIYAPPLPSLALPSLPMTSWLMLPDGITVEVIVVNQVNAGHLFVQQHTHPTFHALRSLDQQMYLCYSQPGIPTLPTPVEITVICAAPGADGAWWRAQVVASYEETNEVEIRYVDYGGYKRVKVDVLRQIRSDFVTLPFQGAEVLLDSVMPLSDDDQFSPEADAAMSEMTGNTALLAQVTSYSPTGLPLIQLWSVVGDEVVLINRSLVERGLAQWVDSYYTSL
UniProt Q96FW1, whole entry, looked up: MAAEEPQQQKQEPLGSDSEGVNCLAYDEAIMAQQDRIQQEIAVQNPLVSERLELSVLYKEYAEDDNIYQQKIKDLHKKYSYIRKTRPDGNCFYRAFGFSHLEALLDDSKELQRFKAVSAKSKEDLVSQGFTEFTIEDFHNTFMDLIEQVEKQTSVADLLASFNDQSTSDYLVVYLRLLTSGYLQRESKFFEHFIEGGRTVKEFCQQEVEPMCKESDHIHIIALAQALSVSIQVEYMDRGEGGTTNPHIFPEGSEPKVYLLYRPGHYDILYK
UniProt Q96CW6: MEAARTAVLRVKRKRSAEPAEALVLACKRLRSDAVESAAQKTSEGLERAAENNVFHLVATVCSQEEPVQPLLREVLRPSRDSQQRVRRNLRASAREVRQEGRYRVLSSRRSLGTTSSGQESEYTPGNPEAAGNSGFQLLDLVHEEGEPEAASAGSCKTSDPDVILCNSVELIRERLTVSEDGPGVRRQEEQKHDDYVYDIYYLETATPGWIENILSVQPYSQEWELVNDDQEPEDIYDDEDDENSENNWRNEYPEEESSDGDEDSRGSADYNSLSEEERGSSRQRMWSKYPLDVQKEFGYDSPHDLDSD
UniProt Q96CP2: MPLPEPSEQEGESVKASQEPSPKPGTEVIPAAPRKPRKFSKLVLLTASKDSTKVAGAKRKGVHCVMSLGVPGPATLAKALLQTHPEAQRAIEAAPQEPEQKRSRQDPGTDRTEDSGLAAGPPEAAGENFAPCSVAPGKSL
UniProt Q96AG4: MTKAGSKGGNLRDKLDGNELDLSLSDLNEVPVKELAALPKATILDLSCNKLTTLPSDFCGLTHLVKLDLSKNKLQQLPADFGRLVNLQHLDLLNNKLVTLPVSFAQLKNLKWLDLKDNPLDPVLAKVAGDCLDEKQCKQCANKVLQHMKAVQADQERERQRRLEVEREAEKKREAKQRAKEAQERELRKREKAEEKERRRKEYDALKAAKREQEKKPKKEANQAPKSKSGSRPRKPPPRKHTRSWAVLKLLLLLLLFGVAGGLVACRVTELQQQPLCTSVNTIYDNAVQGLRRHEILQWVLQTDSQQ
UniProt Q92598: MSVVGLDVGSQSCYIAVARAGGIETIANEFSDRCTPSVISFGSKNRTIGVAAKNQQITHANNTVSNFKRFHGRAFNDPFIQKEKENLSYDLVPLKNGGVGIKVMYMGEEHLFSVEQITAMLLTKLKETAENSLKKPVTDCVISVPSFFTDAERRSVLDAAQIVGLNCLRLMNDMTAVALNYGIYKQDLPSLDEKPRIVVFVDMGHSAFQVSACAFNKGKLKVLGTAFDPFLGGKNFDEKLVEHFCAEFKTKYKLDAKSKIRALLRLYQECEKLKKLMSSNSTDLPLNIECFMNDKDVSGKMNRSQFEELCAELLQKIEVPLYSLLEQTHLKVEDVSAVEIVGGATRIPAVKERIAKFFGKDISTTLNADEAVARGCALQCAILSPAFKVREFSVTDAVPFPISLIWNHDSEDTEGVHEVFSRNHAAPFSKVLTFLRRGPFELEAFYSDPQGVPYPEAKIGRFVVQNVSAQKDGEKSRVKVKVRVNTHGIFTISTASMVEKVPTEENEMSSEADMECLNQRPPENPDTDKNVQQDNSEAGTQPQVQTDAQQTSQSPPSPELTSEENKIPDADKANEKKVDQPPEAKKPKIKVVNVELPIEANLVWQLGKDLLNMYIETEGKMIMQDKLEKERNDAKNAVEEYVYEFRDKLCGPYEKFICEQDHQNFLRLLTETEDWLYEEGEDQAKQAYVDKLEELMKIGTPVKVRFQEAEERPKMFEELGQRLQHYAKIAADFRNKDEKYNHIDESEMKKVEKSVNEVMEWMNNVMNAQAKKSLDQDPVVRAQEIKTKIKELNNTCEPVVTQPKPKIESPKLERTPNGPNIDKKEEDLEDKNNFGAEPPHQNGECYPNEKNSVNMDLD
UniProt Q92621: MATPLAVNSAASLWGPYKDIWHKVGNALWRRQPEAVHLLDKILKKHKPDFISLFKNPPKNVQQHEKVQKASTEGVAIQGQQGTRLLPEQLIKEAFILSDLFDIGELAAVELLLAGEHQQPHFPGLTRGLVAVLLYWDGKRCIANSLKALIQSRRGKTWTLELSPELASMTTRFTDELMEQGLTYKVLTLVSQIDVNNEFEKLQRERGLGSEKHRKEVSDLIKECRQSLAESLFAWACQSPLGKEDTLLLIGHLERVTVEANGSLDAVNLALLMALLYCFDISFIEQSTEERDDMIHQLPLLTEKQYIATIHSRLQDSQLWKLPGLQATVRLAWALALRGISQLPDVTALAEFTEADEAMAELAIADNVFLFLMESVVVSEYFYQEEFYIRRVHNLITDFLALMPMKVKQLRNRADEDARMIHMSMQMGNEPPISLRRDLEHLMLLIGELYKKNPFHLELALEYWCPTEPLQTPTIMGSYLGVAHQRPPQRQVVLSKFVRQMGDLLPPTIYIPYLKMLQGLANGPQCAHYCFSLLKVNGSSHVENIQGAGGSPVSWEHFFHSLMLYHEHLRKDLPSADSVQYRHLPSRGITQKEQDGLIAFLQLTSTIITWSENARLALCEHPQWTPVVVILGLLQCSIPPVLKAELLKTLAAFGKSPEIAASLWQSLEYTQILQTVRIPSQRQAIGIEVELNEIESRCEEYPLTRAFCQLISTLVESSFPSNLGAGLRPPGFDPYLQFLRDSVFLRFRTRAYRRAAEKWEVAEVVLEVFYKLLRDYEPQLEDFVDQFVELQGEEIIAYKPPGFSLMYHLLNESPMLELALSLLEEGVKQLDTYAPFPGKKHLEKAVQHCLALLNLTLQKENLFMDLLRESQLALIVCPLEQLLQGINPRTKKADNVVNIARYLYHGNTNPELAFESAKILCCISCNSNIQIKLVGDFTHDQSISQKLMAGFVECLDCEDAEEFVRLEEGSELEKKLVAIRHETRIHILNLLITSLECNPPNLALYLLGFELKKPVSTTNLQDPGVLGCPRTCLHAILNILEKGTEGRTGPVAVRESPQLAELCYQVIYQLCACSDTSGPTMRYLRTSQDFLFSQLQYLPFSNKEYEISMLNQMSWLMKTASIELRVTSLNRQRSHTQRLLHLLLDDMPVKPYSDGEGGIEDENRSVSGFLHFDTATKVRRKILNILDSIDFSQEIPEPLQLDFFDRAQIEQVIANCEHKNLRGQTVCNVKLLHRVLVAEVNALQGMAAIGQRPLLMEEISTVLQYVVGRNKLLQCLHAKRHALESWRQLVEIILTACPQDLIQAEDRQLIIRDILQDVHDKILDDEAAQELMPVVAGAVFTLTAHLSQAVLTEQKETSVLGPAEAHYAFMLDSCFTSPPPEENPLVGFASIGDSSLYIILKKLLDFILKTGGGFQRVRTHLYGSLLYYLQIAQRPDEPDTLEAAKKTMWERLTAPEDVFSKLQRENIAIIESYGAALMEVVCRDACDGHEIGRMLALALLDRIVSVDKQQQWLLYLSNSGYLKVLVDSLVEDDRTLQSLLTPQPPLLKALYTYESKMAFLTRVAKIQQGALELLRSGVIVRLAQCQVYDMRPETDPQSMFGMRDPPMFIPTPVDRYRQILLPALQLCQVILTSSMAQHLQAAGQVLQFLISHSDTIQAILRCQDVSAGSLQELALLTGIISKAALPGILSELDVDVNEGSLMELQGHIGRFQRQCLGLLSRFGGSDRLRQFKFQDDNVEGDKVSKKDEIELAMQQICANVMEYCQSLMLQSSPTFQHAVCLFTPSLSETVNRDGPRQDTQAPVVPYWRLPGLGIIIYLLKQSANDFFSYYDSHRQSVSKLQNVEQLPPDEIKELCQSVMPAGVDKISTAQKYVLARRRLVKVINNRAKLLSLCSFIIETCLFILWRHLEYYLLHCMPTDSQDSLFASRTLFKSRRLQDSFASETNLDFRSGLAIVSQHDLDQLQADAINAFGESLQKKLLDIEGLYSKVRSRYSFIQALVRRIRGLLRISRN
UniProt Q92945: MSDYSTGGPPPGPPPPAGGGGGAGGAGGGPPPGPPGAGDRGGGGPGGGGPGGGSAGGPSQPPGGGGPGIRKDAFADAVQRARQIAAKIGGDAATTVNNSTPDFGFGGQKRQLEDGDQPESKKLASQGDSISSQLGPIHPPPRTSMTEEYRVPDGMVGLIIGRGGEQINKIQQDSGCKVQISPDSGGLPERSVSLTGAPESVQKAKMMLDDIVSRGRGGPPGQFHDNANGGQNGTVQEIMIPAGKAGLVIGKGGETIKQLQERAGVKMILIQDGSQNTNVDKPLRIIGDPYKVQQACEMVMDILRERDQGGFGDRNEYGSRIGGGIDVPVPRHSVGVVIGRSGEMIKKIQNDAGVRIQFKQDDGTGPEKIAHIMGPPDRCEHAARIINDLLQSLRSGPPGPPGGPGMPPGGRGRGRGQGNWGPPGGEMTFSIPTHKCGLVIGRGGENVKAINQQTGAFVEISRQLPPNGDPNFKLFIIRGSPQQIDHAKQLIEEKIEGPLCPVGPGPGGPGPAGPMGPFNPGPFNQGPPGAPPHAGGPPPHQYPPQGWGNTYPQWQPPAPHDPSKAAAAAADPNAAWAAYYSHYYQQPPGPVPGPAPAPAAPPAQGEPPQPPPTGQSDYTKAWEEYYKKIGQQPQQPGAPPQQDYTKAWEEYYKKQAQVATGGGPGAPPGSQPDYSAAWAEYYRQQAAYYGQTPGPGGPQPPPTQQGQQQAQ
UniProt Q92575: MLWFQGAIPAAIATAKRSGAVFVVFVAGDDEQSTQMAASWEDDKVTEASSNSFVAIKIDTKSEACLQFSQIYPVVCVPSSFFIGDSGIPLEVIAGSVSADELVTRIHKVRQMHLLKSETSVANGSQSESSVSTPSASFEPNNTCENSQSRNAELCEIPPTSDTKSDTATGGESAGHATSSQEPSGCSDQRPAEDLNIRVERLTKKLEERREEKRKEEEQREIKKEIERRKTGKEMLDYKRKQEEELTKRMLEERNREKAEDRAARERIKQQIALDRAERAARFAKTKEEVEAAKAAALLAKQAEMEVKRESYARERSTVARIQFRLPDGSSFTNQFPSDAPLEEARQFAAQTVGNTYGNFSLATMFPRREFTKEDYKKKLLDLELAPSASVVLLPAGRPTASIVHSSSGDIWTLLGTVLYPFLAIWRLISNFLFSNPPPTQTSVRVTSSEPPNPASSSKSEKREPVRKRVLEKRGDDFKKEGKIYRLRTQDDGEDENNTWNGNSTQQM

compound: COC(=O)/C=C/c1ccccc1 [methyl cinnamate]; experiment: log2 ratio of iodoacetamide-alkyne labeling of the cysteine site, DMSO over compound (competition); higher = stronger covalent engagement of the cysteine by the compound, active = 1 or more; conditions: 500 µM; treatment time 1 h; system: HEK293T cell lysate
Outline: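 Electrophile (500 µM) or vehicle was added to HEK293T lysate (2 mg/mL) for 1 h at ambient temperature before iodoacetamide alkyne labelling (1 h) and click coupling to sCIP-TMT reagents. After pooling, overnight trypsin digestion at 37 °C, streptavidin enrichment and acid elution, peptides were measured by Orbitrap Eclipse LC-MS/MS with FAIMS and quantified in FragPipe. Each cysteine's log2 competition ratio compares mean control-channel with mean compound-channel reporter intensity, control over compound. Data came from duplicate channels across three replicates, excluding cysteines quantified in only one replicate.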

log2 ratio of iodoacetamide-alkyne labeling, inactive:
ELP4 C361 (UniProt Q96EB1) 0.0848
MASTL C285 (UniProt Q96GX5) 0.361
FAF2 C194 (UniProt Q96CS3) 0.124
SYAP1 C283 (UniProt Q96A49) 0.0961
AKAP1 C102 (UniProt Q92667) -0.0189
OTUB1 C23 (UniProt Q96FW1) 0.407
AKAP1 C376 (UniProt Q92667) 0.59
EXOSC8 C89 (UniProt Q96B26) 0.0125
TBRG4 C335 (UniProt Q969Z0) 0.288
RPE C23 (UniProt Q96AT9) -0.0035
UniProt Q96EK5_C371 0.0029
WDR89 C82 (UniProt Q96FK6) 0.479
ZC3HAV1L C121 (UniProt Q96H79) 0.0478
RREB1 C648 (UniProt Q92766) 0.25
UniProt Q96EK5_C10 -0.0839
SLC7A6OS C166 (UniProt Q96CW6) 0.465
NMD3 C214 (UniProt Q96D46) 0.0156
PDXP C91 (UniProt Q96GD0) -0.0107
FLYWCH2 C132 (UniProt Q96CP2) -0.0543
TBRG4 C370 (UniProt Q969Z0) -0.202
LRRC59 C59 (UniProt Q96AG4) 0.0193
DDX27 C321 (UniProt Q96GQ7) -0.364
AKAP1 C64 (UniProt Q92667) 0.235
UniProt Q96FZ2_C266 0.165
MRPL38 C290 (UniProt Q96DV4) -0.042
PDLIM5 C446 (UniProt Q96HC4) 0.227
HSPH1 C310 (UniProt Q92598) 0.133
POM121 C307 (UniProt Q96HA1) 0.23
NUP205 C1715 (UniProt Q92621) 0.139
PHF3 C843 (UniProt Q92576) 0.409
MRPL53 C21 (UniProt Q96EL3) -0.0143
EDC3 C410 (UniProt Q96F86) 0.087
TUBGCP3 C18 (UniProt Q96CW5) 0.515
KHSRP C176 (UniProt Q92945) 0.0858
PDLIM5 C449 (UniProt Q96HC4) 0.227
UBXN4 C144 (UniProt Q92575) 0.328
UniProt Q92841_C277 0.274
LRRC59 C48 (UniProt Q96AG4) 0.132

Two records picked at random from those above:
log2 ratio of iodoacetamide-alkyne labeling, inactive:
MRPL53 C21 (UniProt Q96EL3) -0.0143
SLC7A6OS C166 (UniProt Q96CW6) 0.465
